Where a name gives a salt, the structure may show the parent alone. This is one part of the list. Baselines shift from plate to plate; read single values as rough.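 HCT116-GFP, a KRAS-mutant, microsatellite-unstable human colorectal cancer line, constantly expresses green fluorescent protein; immune cells were from healthy donors. Cancer cell survival was tracked by live-cell imaging of green fluorescence, and activated immune cells by themselves reduced survival to roughly half.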
tested on: HCT116-GFP; test: HCT116-GFP viability (GFP intensity) relative to untreated HCT116-GFP monoculture control, co-culture with activated PBMCs; higher = less cancer cell killing; conditions: culture: co-culture with anti-CD3/IL2 activated PBMCs 1:1; 10 µM; 72 h

SMILES | HCT116-GFP viability [%]
CC(C)(Oc1ccc(CCNC(=O)c2ccc(Cl)cc2)cc1)C(=O)O [Bezafibrate] | 49
O=C(O)CCc1nc(-c2ccccc2)c(-c2ccccc2)o1 [Oxaprozin] | 42.7
O=C1c2ccccc2C(=O)C1c1ccccc1 [Phenindione] | 61.3
Clc1ccc2c(c1)C(N1CCNCC1)=Nc1ccccc1O2 [Amoxapine] | 38.7
COc1ccc(CC(C)NCC(O)c2ccc(O)c(NC=O)c2)cc1 (stereo not given) [Formoterol fumarate] | 53.1
CCOC(=O)N1CCC(=C2c3ccc(Cl)cc3CCc3cccnc32)CC1 [Loratadine] | 63.2
COC(=O)[C@H](c1ccccc1Cl)N1CCc2sccc2C1 [Clopidogrel] | 32.1
C[C@]12CCC(=O)C=C1CC[C@@H]1[C@@H]2C(=O)C[C@@]2(C)[C@H]1CC[C@]2(O)C(=O)CO [Cortisone] | 33.1
COCCCC/C(=N\OCCN)c1ccc(C(F)(F)F)cc1 [Fluvoxamine maleate] | 44.1
CC(=O)[C@@]12O[C@](C)(c3ccccc3)O[C@@H]1C[C@H]1[C@@H]3CCC4=CC(=O)CC[C@]4(C)[C@H]3CC[C@@]12C [Algestone acetophenide] | 39.5
C[C@H](N[C@@H](CCc1ccccc1)C(=O)O)C(=O)N1CCC[C@H]1C(=O)O [Enalaprilat dihydrate] | 33.5
CN(C)[C@@H]1C(O)=C(C(N)=O)C(=O)[C@@]2(O)C(O)=C3C(=O)c4c(O)cccc4[C@@](C)(O)[C@H]3C[C@@H]12 [Tetracycline hydrochloride] | 44.5
CS(=O)(=O)c1ccc([C@@H](O)[C@@H](CF)NC(=O)C(Cl)Cl)cc1 [Florfenicol] | 69.9
CCN(CC)CCCC(C)Nc1ccnc2cc(Cl)ccc12 (stereo not given) [Chloroquine diphosphate] | 71
C=C(CC)C(=O)c1ccc(OCC(=O)O)c(Cl)c1Cl [Ethacrynic acid] | 33
Nc1ccc(S(=O)(=O)NC(=O)c2ccccc2)cc1 [Sulfabenzamide] | 73.6
CCCCCN(C)CCC(O)(P(=O)(O)O)P(=O)(O)O [Ibandronate sodium] | 61.1
C1N2CN3CN1CN(C2)C3 [Methenamine] | 54.6
O=C1NCCN1c1ncc([N+](=O)[O-])s1 [Niridazole] | 63.1
CC(C)(C)C(=O)OCOC(=O)[C@@H]1N2C(=O)[C@@H](/N=C/N3CCCCCC3)[C@H]2SC1(C)C [Pivmecillinam hydrochloride] | 50.3
CNc1ncnc2c1ncn2[C@@H]1O[C@H](CO)[C@@H](O)[C@H]1O [N6-methyladenosine] | 42.9
OCC(O)CN1CCN(c2ccccc2)CC1 (racemic) [Dropropizine (R,S)] | 31.3
c1ccc2c(c1)CCCC2C1=NCCN1 (stereo not given) [Tetrahydrozoline hydrochloride] | 65
C[C@@H](O)[C@H]1C(=O)N2C(C(=O)O)=C(SCCNC=N)C[C@H]12 [Imipenem] | 44.8
CC(=O)OCC(=O)NCCCOc1cccc(CN2CCCCC2)c1 [Roxatidine Acetate hydrochloride] | 41.8

Quoted from the listing:
Entry of C=C(CC)C(=O)c1ccc(OCC(=O)O)c(Cl)c1Cl [Ethacrynic acid] under HCT116-GFP viability [%]: 33
Entry of COc1ccc(CC(C)NCC(O)c2ccc(O)c(NC=O)c2)cc1 (stereo not given) [Formoterol fumarate] under HCT116-GFP viability [%]: 53.1

(listing goes on)

SMILES | HCT116-GFP viability [%]
CCn1cc(C(=O)O)c(=O)c2cc(F)c(N3CCNCC3)nc21 [Enoxacin] | 45
CCCc1ncc(C[n+]2ccccc2C)c(N)n1 [Amprolium hydrochloride] | 42.9
CC(C(=O)O)c1cccc(Oc2ccccc2)c1 (stereo not given) [Fenoprofen calcium salt dihydrate] | 88.6
Oc1ccc(C2CNCCc3c2cc(O)c(O)c3Cl)cc1 (stereo not given) [Fenoldopam] | 30.6
OC(Cn1cncn1)(Cn1cncn1)c1ccc(F)cc1F [Fluconazole] | 43.5
CCCOc1cc(N)ccc1C(=O)OCCN(CC)CC [Propoxycaine hydrochloride] | 37.3
NCCc1c[nH]cn1 [Histamine dihydrochloride] | 44.8
CC[N+](C)(C)c1cccc(O)c1 [Edrophonium chloride] | 38.6
Cc1cn[nH]c1 [Fomepizole] | 41.6
CCCCN(CCCC)CCCOC(=O)c1ccc(N)cc1 [Butacaine] | 71.2
Cc1ccc(C(=O)c2ccc(CC(=O)O)n2C)cc1 [Tolmetin sodium salt dihydrate] | 57.3
COC(=O)Nc1nc2cc(C(=O)c3cccs3)ccc2[nH]1 [Nocodazole] | 4.89
CC[N+](C)(CC)CCOC(=O)C1c2ccccc2Oc2ccccc21 [Methantheline bromide] | 34
CC(=O)OCC(=O)[C@@]1(O)CC[C@H]2[C@@H]3CCC4=CC(=O)CC[C@]4(C)[C@@]3(F)[C@@H](O)C[C@@]21C [Fludrocortisone acetate] | 79.9
C=CC(N)CCC(=O)O (stereo not given) [Vigabatrin hydrochloride] | 52.1
NS(=O)(=O)c1cc(C2(O)NC(=O)c3ccccc32)ccc1Cl (stereo not given) [Chlorthalidone] | 29.9
CCN[C@H]1CN(CCCOC)S(=O)(=O)c2sc(S(N)(=O)=O)cc21 [Brinzolamide] | 48.1
CC(=O)OCC(=O)[C@@]1(O)CC[C@H]2[C@@H]3CCC4=CC(=O)CC[C@]4(C)[C@H]3[C@@H](O)C[C@@]21C [Cortisol acetate] | 87
Cc1ncc(C[n+]2csc(CCO)c2C)c(N)n1 [Thiamine hydrochloride] | 63.8
CC(C)c1c(C(=O)Nc2ccccc2)c(-c2ccccc2)c(-c2ccc(F)cc2)n1CC[C@@H](O)C[C@@H](O)CC(=O)O [Atorvastatin] | 20.3
CCCc1cc(C(N)=S)ccn1 [Prothionamide] | 37.7
CC(=O)S[C@@H]1CC2=CC(=O)CC[C@]2(C)[C@H]2CC[C@@]3(C)[C@@H](CC[C@@]34CCC(=O)O4)[C@H]12 [Spironolactone] | 52.8
CC(Cc1cccc(C(F)(F)F)c1)NCCOC(=O)c1ccccc1 (stereo not given) [Benfluorex] | 72.4
NNCCc1ccccc1 [Phenelzine sulfate] | 31.9
C[C@H]1O[C@H](O[C@H]2[C@H](O)[C@@H](O)[C@@H](O[C@H]3[C@H](O)[C@@H](O)C(O)O[C@@H]3CO)O[C@@H]2CO)[C@H](O)[C@@H](O)[C@@H]1N[C@H]1C=C(CO)[C@@H](O)[C@H](O)[C@H]1O (stereo not given in full) [Acarbose] | 53.1
